PubChem BioAssay AID1259424, University of Nebraska Medical Center, 2018

Assay: 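Seek colon cancer survival genes behaving like KSR1, using a six-gene signature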 (primary screen)
Cells: human HCT116 colon cancer cells
Reagents: siRNA pool against human genes, 50 nM
Measurement: 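Log2 levels of six mRNAs (branched-DNA multiplex), adjusted by two reference genes and the non-targeting median, then scored against the average KSR1 knockdown pattern as Pearson r and euclidean distance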
Reading the numbers: mean correlation with KSR1 profile: higher = expression change more like KSR1 knockdown
Here is a random part of about 14,000 reagents tested. 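Higher correlation or smaller distance means closer resemblance to KSR1 loss; control wells, including KSR1 knockdowns, recur on many plates.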 The numbers tell different reagents against one gene apart. Some reagents were tested in more than one well and are listed for each. Not all columns of the deposit are shown. The record does not give: the time to read-out.

TSBP1: mean correlation with KSR1 profile = -0.279
ZNF75D: mean correlation with KSR1 profile = 0.0498
IL17RD: mean correlation with KSR1 profile = -0.0494
DCAKD: mean correlation with KSR1 profile = 0.846
PRLHR: mean correlation with KSR1 profile = 0.78
CD3E: mean correlation with KSR1 profile = 0.185
CD3E: mean correlation with KSR1 profile = 0.792
ATP6V1A: mean correlation with KSR1 profile = -0.0742

2 entries from above, reformatted:
{"Target gene": "DCAKD", "reagent no.": 1, "mean correlation with KSR1 profile": 0.846}
{"Target gene": "PRLHR", "reagent no.": 1, "mean correlation with KSR1 profile": 0.78}

More reagents follow.
P2RY12: mean correlation with KSR1 profile = 0.399
RAD54B #1: mean correlation with KSR1 profile = -0.0928
RAD54B #2: mean correlation with KSR1 profile = 0.175
ADAMTS18: mean correlation with KSR1 profile = -0.0206
GPR137: mean correlation with KSR1 profile = 0.519
ISG20: mean correlation with KSR1 profile = 0.531
SNX7: mean correlation with KSR1 profile = -0.167
ARMC2: mean correlation with KSR1 profile = 0.764
TAF7: mean correlation with KSR1 profile = 0.329
CLNS1A: mean correlation with KSR1 profile = -0.276
PPP4R1: mean correlation with KSR1 profile = 0.484
